Results published in the supplement of paper PMC7666118.
Some of the results follow.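 Rule for the calls: active = dose-dependent thermal stabilisation significant by F-test of dose-response against flat model at 10% FDR; inactive = not significant.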

Sequences of proteins named here, by UniProt entry; tags and fusion partners are left off. A change or cut given only in a name is not applied to a line headed by its entry.
UniProt Q63HN8: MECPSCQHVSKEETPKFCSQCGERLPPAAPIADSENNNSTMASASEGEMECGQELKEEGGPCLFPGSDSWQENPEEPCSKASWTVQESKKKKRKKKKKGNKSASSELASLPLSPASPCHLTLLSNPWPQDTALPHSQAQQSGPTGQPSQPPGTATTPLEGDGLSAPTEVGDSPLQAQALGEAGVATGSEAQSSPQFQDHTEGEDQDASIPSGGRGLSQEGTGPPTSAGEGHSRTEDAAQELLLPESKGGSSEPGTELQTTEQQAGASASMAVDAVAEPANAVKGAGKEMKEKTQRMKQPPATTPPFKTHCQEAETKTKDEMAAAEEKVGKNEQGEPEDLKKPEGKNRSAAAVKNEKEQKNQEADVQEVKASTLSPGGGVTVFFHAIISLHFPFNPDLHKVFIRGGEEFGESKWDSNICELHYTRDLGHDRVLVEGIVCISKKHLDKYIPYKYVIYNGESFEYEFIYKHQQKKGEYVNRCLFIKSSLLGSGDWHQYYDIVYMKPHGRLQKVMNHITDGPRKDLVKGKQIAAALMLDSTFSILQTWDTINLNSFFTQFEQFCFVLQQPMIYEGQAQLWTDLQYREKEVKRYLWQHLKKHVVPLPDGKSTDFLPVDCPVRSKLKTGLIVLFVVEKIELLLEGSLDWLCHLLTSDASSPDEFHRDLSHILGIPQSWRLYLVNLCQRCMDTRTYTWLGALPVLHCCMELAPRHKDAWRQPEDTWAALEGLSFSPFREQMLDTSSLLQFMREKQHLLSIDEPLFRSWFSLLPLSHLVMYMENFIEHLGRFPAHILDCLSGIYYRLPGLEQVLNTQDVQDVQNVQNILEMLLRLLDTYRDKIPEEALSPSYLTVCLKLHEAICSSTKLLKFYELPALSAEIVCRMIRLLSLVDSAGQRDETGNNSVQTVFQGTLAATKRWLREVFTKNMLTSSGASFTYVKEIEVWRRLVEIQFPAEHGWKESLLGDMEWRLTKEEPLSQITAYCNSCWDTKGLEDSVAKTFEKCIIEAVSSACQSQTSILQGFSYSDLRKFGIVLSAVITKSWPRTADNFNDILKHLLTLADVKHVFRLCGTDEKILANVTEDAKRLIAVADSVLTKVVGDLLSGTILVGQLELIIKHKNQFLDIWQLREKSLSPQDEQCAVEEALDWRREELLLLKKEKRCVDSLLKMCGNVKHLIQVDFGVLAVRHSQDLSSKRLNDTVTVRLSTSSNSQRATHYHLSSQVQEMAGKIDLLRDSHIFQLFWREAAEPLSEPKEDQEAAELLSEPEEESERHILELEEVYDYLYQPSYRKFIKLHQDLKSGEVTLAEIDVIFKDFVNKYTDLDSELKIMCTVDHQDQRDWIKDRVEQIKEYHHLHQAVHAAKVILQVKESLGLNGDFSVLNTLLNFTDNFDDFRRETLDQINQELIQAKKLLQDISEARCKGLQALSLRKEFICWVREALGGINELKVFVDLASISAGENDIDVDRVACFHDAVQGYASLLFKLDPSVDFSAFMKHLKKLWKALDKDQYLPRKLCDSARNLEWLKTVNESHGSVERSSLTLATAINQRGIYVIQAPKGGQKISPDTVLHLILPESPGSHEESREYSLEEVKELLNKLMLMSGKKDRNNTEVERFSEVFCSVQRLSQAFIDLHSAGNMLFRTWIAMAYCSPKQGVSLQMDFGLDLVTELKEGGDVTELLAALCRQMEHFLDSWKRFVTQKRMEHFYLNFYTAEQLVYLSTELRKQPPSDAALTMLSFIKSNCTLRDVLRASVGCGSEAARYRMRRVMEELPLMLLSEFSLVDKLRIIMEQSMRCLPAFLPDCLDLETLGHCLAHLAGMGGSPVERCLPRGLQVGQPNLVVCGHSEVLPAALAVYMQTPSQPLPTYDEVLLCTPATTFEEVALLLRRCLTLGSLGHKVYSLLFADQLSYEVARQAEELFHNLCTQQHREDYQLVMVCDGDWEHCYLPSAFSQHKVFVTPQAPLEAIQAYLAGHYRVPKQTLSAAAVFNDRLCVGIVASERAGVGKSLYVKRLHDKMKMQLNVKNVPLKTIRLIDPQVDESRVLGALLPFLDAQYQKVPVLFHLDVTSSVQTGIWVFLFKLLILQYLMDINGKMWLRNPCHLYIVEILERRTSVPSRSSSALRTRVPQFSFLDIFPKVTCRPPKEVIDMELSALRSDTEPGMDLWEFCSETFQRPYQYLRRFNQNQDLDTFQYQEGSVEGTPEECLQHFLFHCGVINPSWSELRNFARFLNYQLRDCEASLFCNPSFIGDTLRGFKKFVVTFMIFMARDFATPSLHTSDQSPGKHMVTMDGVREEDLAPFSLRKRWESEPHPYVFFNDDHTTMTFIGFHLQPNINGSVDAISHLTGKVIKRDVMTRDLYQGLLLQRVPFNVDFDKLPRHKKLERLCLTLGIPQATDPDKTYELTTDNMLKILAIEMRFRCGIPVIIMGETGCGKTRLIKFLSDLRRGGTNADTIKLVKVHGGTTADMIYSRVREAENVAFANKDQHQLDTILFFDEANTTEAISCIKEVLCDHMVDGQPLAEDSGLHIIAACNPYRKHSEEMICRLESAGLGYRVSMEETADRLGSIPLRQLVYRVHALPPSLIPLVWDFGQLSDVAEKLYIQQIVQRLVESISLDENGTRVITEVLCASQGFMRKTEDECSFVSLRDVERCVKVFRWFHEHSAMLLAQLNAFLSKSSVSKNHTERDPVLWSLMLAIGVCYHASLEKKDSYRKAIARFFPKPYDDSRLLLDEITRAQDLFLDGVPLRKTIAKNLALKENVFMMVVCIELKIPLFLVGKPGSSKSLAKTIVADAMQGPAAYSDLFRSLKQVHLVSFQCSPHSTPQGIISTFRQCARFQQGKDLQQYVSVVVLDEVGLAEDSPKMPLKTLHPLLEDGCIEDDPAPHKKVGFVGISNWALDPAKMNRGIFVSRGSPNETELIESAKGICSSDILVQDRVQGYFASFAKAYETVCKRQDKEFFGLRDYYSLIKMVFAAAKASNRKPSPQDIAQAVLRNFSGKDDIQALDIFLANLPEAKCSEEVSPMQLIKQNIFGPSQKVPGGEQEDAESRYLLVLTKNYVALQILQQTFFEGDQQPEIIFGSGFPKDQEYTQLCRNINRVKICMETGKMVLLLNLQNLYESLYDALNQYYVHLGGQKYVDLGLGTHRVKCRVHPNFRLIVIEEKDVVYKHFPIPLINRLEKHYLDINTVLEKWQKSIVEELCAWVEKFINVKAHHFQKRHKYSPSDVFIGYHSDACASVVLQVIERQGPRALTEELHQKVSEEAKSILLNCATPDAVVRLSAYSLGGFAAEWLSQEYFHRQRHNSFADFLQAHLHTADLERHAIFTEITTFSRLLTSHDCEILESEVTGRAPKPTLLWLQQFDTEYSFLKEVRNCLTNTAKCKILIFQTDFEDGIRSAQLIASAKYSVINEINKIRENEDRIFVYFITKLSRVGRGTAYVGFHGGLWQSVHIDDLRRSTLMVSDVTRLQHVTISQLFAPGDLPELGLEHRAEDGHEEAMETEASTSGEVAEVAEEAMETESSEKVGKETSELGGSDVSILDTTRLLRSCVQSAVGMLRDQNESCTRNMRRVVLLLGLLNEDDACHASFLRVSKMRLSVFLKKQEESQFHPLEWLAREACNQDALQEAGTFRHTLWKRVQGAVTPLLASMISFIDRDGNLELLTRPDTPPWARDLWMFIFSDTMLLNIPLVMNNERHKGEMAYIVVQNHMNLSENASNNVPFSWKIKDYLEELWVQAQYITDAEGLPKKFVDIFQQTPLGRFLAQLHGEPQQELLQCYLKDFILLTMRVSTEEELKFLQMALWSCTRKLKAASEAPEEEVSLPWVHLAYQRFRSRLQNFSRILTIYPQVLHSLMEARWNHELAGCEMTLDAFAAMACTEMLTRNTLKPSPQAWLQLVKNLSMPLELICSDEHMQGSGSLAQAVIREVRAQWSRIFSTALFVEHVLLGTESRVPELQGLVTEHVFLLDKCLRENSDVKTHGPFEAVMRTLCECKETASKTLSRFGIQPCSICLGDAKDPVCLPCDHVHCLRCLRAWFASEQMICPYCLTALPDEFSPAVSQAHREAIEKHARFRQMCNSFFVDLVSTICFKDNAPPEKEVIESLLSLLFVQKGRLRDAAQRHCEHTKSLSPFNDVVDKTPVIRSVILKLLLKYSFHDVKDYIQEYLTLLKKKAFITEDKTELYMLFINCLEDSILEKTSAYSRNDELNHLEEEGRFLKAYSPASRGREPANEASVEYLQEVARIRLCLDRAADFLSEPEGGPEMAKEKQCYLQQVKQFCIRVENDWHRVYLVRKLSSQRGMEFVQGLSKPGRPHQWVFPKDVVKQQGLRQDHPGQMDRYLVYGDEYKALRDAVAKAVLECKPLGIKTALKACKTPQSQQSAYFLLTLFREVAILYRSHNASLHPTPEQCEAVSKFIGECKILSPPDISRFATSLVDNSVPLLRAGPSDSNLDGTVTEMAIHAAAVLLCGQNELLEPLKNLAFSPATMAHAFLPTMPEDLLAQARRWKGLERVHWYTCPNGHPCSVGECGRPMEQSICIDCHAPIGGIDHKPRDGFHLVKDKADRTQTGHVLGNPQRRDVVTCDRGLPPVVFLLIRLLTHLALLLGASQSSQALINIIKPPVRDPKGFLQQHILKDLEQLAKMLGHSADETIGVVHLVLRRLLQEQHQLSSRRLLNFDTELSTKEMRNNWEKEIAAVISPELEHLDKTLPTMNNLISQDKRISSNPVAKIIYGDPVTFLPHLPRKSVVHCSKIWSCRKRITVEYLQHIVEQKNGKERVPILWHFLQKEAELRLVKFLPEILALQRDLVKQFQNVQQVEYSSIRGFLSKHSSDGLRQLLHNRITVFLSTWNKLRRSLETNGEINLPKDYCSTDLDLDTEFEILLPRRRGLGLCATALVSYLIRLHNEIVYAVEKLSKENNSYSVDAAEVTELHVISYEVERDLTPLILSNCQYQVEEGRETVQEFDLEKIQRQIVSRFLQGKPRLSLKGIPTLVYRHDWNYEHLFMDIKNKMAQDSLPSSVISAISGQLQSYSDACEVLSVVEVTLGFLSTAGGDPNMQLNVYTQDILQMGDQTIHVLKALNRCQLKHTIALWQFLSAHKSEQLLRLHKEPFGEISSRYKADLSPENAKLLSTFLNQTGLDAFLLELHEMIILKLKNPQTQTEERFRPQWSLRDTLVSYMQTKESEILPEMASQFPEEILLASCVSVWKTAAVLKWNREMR
UniProt O60942: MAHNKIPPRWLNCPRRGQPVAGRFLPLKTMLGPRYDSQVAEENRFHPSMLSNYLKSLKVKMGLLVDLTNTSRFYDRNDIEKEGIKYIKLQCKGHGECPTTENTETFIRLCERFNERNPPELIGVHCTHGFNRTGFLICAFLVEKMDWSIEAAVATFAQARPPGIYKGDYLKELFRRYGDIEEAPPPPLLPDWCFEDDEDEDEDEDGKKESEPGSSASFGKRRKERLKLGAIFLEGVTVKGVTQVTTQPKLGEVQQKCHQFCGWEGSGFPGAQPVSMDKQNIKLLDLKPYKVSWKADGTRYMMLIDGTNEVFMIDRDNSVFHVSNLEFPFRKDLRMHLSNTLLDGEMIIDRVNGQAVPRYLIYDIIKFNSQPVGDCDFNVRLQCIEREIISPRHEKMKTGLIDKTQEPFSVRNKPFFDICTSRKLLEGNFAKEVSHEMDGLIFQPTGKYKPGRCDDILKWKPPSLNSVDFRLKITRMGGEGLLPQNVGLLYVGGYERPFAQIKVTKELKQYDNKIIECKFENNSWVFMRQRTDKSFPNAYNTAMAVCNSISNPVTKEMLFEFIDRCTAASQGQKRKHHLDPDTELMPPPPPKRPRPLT
UniProt P50454: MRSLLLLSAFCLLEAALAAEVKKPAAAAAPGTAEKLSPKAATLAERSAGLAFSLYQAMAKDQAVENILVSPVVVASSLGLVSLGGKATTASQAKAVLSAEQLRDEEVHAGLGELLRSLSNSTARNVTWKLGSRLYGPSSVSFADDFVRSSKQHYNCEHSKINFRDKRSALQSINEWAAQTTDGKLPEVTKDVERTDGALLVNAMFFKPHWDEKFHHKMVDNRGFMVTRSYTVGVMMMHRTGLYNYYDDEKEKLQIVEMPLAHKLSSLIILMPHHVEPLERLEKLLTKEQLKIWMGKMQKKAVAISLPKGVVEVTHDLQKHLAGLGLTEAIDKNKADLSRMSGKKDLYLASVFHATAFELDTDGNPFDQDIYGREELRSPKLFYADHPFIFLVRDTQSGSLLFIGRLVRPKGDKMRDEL
UniProt O00287: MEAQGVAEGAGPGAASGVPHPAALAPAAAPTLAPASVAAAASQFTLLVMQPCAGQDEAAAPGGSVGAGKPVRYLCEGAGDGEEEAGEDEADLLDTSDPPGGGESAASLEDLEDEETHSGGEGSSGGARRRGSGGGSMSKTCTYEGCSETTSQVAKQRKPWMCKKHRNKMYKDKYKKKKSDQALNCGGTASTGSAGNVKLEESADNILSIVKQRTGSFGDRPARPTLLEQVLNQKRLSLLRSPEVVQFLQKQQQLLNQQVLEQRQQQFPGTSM

The targets below were run with Nc1nc2c(ncn2[C@@H]2O[C@H](COP(=O)(O)OP(=O)(O)OP(=O)(O)O)[C@@H](O)[C@H]2O)c(=O)[nH]1 (assay: dose-dependent thermal stabilisation call (2D-TPP, DLPTP, 10% FDR) (binary (1 = stabilised)); higher = stabilised by the compound). Details: system: Jurkat gel-filtered lysate; concentration range 1-500 µM.
Procedure: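 2D thermal proteome profiling in gel-filtered Jurkat E6.1 lysate (2 mg/ml) treated with NaGTP (0, 1, 10, 100, 500 uM) for 10 min at room temperature, then heated 3 min at one of 12 temperatures (42-63.9 C). Soluble protein was quantified by TMT10 MS. The value is the DLPTP call of the paper: dose-dependent thermal stabilisation over all temperatures at 10% FDR (F-test of a dose-response against a flat model); one experiment, one call per tested protein.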

Row | Target | dose-dependent thermal stabilisation call
1 | RWDD1 (UniProt Q9H446) | inactive: 0
2 | SEPTIN7 (UniProt Q16181) | inactive: 0
3 | RNF220 (UniProt Q5VTB9) | inactive: 0
4 | RTCB (UniProt Q9Y3I0) | active: 1
5 | RTN3 (UniProt O95197) | inactive: 0
6 | RSF1 (UniProt Q96T23) | inactive: 0
7 | SAP18 (UniProt O00422) | active: 1
8 | RREB1 (UniProt Q92766) | inactive: 0
9 | SCP2 (UniProt P22307) | inactive: 0
10 | SBDS (UniProt Q9Y3A5) | inactive: 0
11 | RNH1 (UniProt P13489) | inactive: 0
12 | SERPINB8 (UniProt P50452) | inactive: 0
13 | RSRC2 (UniProt Q7L4I2) | inactive: 0
14 | RIPOR2 (UniProt Q9Y4F9) | inactive: 0
15 | RRP15 (UniProt Q9Y3B9) | inactive: 0
16 | REL (UniProt Q04864) | inactive: 0
17 | SAMD4B (UniProt Q5PRF9) | inactive: 0
18 | RNASEH2C (UniProt Q8TDP1) | inactive: 0
19 | SCRIB (UniProt Q14160) | inactive: 0
20 | RSPRY1 (UniProt Q96DX4) | inactive: 0

Row | Target | dose-dependent thermal stabilisation call
21 | SDHA (UniProt P31040) | inactive: 0
22 | REST (UniProt Q13127) | inactive: 0
23 | SETD1A (UniProt O15047) | inactive: 0
24 | RNF213 (UniProt Q63HN8) | inactive: 0
25 | RNF34 (UniProt Q969K3) | inactive: 0
26 | RNF141 (UniProt Q8WVD5) | inactive: 0
27 | SAC3D1 (UniProt A6NKF1) | inactive: 0
28 | SFN (UniProt P31947) | inactive: 0
29 | RPS3A (UniProt P61247) | inactive: 0
30 | RUVBL2 (UniProt Q9Y230) | inactive: 0
31 | RHOA (UniProt P61586) | active: 1
32 | SEPTIN1 (UniProt Q8WYJ6) | active: 1
33 | RNGTT (UniProt O60942) | active: 1
34 | SERPINH1 (UniProt P50454) | inactive: 0
35 | RPS2 (UniProt P15880) | inactive: 0
36 | SCAI (UniProt Q8N9R8) | active: 1
37 | RNF4 (UniProt P78317) | inactive: 0
38 | RPTOR (UniProt Q8N122) | inactive: 0
39 | RFXAP (UniProt O00287) | inactive: 0
40 | RUBCN (UniProt Q92622) | inactive: 0

From entry 37 to 38, copied from above:
Row | Target | dose-dependent thermal stabilisation call
37 | RNF4 (UniProt P78317) | inactive: 0
38 | RPTOR (UniProt Q8N122) | inactive: 0
